Test results reported in the supplement of paper PMC12067093, “Discovery and optimisation of a covalent ligand for TRIM25 and its application to targeted protein ubiquitination” (Chemical Science, 2025).
The other results are listed elsewhere or left out.

Protein sequences, listed by entry. Tags and fused reporters are not part of them. Lines headed by an entry give the natural chain unless they say otherwise; changes in a name come on top.
UniProt Q9Y6Y0: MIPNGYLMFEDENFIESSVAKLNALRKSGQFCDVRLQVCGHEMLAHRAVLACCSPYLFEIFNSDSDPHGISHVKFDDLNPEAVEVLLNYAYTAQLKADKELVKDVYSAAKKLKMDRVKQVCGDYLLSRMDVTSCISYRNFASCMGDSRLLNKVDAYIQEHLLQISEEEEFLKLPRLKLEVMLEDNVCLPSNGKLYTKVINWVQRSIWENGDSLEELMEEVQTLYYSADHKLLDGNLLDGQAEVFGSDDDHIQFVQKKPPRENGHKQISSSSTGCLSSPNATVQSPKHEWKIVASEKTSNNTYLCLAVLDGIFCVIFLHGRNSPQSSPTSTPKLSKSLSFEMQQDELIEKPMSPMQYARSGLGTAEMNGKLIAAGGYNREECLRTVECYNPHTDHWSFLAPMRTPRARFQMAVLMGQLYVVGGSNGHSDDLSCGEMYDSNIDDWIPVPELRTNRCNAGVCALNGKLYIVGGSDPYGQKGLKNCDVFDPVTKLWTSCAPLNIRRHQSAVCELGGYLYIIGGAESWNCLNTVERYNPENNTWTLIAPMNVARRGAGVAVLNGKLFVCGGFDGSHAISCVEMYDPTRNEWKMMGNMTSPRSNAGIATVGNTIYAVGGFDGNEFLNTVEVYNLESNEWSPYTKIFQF
UniProt Q9H8E8: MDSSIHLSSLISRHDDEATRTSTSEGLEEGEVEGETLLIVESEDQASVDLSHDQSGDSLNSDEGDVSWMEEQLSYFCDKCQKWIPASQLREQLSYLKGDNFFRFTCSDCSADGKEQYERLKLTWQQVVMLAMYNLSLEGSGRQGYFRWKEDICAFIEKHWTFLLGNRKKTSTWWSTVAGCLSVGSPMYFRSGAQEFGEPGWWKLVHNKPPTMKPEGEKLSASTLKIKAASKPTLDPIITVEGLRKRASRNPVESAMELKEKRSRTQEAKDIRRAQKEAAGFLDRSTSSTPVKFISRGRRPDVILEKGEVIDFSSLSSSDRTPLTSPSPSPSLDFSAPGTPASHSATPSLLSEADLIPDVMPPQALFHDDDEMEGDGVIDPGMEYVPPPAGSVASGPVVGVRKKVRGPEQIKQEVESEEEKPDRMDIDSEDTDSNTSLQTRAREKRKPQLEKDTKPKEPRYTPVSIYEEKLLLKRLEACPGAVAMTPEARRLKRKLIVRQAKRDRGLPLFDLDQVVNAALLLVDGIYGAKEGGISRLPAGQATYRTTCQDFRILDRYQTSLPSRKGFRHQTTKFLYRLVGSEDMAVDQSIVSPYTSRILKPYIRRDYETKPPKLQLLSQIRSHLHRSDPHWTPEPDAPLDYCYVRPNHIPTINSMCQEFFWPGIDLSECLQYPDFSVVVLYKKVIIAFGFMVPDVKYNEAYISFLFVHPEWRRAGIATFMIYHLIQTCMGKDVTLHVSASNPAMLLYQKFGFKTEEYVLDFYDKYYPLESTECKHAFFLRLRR
UniProt O94819: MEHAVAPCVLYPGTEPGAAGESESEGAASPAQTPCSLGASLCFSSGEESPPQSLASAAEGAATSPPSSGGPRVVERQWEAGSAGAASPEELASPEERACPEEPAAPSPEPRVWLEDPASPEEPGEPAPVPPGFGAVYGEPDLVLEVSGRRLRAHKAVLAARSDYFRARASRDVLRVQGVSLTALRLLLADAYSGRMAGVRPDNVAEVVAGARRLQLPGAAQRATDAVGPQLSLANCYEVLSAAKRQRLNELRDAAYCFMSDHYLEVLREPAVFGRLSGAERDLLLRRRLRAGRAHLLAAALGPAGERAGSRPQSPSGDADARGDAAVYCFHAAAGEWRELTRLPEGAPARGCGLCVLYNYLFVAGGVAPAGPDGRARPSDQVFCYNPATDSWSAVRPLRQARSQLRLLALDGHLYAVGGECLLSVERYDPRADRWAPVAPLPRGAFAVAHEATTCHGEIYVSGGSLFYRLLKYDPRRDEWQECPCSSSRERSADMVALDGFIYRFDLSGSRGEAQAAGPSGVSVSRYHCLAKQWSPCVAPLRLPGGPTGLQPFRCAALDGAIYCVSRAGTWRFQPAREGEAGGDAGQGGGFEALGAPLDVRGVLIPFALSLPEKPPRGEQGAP
UniProt P26440: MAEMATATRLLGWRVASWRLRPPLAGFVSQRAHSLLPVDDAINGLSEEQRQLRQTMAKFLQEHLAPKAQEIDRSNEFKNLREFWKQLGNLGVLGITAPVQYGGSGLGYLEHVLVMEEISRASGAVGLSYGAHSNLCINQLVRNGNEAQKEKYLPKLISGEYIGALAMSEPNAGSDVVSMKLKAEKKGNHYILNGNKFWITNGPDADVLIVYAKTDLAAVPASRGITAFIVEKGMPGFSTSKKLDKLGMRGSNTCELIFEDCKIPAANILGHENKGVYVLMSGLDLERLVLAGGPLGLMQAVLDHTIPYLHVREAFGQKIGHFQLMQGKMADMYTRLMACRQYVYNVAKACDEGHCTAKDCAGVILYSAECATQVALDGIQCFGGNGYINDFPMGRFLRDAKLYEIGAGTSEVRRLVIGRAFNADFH
UniProt O75164: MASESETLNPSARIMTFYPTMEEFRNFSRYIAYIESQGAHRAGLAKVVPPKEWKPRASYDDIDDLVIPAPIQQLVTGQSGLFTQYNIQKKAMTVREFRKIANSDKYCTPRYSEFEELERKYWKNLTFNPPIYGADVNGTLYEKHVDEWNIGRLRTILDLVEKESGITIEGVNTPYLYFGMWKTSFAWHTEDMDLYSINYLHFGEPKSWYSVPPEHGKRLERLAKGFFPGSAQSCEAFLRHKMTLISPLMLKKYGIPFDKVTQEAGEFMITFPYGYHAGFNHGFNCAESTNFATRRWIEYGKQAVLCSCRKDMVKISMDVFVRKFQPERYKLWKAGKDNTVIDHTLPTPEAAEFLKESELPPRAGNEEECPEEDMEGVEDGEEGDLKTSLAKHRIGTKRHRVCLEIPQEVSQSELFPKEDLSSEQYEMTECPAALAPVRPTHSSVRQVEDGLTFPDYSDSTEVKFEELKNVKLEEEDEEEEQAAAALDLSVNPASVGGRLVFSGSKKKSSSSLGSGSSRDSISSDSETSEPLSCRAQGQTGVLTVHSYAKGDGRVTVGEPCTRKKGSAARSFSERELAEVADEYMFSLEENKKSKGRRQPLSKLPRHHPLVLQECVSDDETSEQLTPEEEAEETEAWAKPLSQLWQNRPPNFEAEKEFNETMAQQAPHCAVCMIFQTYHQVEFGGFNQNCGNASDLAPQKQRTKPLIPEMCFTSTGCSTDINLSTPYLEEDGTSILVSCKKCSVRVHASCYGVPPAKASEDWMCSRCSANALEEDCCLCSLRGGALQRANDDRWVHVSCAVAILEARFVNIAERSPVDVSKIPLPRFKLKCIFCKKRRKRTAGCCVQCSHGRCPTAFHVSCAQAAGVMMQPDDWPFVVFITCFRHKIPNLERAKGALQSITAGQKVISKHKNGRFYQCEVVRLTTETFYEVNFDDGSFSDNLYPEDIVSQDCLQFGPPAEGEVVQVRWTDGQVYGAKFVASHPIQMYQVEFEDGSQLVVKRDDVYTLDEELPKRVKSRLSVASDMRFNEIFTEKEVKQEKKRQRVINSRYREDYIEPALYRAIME
UniProt P23458: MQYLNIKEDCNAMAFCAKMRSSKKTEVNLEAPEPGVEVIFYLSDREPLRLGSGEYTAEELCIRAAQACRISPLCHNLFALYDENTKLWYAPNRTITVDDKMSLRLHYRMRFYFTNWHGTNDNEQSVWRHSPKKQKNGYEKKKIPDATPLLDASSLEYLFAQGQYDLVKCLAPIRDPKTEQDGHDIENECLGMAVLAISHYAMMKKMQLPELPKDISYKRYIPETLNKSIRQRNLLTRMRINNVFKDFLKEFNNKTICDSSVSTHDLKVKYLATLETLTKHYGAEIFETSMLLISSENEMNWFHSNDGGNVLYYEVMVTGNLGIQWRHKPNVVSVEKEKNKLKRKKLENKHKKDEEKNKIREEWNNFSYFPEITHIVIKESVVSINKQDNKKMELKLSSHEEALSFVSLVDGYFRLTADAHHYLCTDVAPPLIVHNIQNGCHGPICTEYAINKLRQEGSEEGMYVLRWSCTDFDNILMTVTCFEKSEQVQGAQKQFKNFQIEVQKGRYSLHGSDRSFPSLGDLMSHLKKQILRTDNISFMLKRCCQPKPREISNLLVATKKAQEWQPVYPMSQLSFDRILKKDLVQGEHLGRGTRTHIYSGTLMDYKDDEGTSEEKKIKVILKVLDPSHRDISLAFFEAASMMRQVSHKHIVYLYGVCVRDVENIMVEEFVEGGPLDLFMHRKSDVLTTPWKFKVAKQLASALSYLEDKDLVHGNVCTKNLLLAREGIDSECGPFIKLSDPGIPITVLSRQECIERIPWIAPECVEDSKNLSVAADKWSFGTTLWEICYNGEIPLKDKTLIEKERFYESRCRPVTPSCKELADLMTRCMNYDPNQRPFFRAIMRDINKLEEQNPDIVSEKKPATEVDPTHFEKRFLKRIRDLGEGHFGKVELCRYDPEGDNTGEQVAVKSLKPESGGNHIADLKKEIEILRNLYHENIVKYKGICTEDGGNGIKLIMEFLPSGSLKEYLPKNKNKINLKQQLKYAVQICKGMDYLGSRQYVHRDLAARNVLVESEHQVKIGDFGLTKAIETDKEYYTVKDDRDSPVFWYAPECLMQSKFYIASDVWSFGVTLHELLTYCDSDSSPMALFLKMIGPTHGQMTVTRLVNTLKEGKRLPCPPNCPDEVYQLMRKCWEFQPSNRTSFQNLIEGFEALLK
UniProt Q63ZY3: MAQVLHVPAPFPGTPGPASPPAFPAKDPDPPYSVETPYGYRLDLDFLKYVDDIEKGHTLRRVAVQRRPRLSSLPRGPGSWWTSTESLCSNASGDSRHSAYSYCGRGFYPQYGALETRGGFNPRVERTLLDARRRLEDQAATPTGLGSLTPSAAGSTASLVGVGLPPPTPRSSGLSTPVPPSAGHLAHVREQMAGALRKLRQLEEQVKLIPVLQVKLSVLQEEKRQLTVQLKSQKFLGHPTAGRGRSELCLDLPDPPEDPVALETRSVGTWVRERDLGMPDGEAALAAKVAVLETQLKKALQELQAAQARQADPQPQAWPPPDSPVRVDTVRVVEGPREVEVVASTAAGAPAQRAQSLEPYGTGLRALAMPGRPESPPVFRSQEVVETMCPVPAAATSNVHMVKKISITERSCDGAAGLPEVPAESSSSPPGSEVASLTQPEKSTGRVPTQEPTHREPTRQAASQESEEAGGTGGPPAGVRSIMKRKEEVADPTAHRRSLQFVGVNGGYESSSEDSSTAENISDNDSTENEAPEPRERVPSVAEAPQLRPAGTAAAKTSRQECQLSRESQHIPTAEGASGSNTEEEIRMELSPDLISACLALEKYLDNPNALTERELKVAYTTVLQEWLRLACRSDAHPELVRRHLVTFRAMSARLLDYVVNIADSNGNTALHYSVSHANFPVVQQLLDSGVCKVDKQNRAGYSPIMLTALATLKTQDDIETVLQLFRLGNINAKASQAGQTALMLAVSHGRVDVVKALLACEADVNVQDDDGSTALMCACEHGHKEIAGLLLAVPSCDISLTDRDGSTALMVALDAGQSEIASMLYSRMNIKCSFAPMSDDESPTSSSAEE
UniProt Q9NXV2: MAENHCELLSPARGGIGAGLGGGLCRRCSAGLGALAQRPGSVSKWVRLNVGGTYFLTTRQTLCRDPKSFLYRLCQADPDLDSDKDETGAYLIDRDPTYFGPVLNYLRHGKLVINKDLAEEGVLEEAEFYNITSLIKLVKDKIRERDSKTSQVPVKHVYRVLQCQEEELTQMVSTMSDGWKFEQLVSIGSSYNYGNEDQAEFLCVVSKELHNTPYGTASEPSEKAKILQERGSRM

Compound: Cc1cc(ccc1-c1ccccc1)C(=O)N1CCCN(CC1)C(=O)CCl [compound 10]
Assay: probe-labelled cysteine peptide fold change vs DMSO (competition) (log2 fold change); higher = less target engagement (more negative = stronger competition)
Details: THP-1, incubation time: 4 h
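Note: competitive profiling in live THP-1 cells: cysteine peptides tagged with an iodoacetamide desthiobiotin (IA-DTB) probe, intensity after compound treatment relative to DMSO-treated cells.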

ITPR2_Q14571_2087_NAYNQGLECDHGDDEGGDDGVSPK (UniProt Q14571)
probe-labelled cysteine peptide fold change (10 µM): -0.133
probe-labelled cysteine peptide fold change (50 µM): -0.122

IVNS1ABP_Q9Y6Y0_387_TVECYNPHTDHWSFLAPMR (UniProt Q9Y6Y0)
probe-labelled cysteine peptide fold change (10 µM): -0.13
probe-labelled cysteine peptide fold change (50 µM): -0.0514

JMJD6_Q6NYC1_207_WCLFPTSTPR (UniProt Q6NYC1)
probe-labelled cysteine peptide fold change (10 µM): 0.164
probe-labelled cysteine peptide fold change (50 µM): -0.0425

KAT14_Q9H8E8_478_RLEACPGAVAMTPEAR (UniProt Q9H8E8)
probe-labelled cysteine peptide fold change (10 µM): -0.0452
probe-labelled cysteine peptide fold change (50 µM): 0.144

KBTBD11_O94819_483+485_RDEWQECPCSSSR (UniProt O94819)
probe-labelled cysteine peptide fold change (10 µM): -0.0586
probe-labelled cysteine peptide fold change (50 µM): -0.627

IVD_P26440_254_GSNTCELIFEDCK (UniProt P26440)
probe-labelled cysteine peptide fold change (10 µM): 0.152
probe-labelled cysteine peptide fold change (50 µM): 0.605

KDM4A_O75164_917_FYQCEVVR (UniProt O75164)
probe-labelled cysteine peptide fold change (10 µM): 0.115
probe-labelled cysteine peptide fold change (50 µM): 0.00976

JAK1_P23458_257_TICDSSVSTHDLK (UniProt P23458)
probe-labelled cysteine peptide fold change (10 µM): 0.0161
probe-labelled cysteine peptide fold change (50 µM): -0.0306

KANK2_Q63ZY3_797_EIAGLLLAVPSCDISLTDR (UniProt Q63ZY3)
probe-labelled cysteine peptide fold change (10 µM): -0.226
probe-labelled cysteine peptide fold change (50 µM): -0.377

KIAA0100_Q14667_1595_GAETEGCVIVSAAK (UniProt Q14667)
probe-labelled cysteine peptide fold change (10 µM): -0.291
probe-labelled cysteine peptide fold change (50 µM): -0.303

KDM3A_Q9Y4C1_814_PACPASTSPLNWLADLTSGNVNK (UniProt Q9Y4C1)
probe-labelled cysteine peptide fold change (10 µM): -0.145
probe-labelled cysteine peptide fold change (50 µM): -0.459

KDM4A_O75164_844+847_TAGCCVQCSHGR (UniProt O75164)
probe-labelled cysteine peptide fold change (10 µM): 0.135
probe-labelled cysteine peptide fold change (50 µM): 0.0613

KCTD5_Q9NXV2_6_AENHCELLSPAR (UniProt Q9NXV2)
probe-labelled cysteine peptide fold change (10 µM): -0.938
probe-labelled cysteine peptide fold change (50 µM): -0.785

KBTBD11_O94819_485_RDEWQECPCSSSR (UniProt O94819)
probe-labelled cysteine peptide fold change (10 µM): 0.0591
probe-labelled cysteine peptide fold change (50 µM): -0.354
